Results: US10912841B2 (PIERRE FABRE MEDICAMENT, priority 2014, dated 2021)

Experiment: general procedure: solution-phase peptide synthesis; HATU/DIEA
Details: for conjugation yield: conjugation step
[1] = late stage modification step, 210 nm

In the case of “(S)—N-((3R,4S,5S)-3-methoxy-1-((S)-2-((1R,2R)-1-methoxy-2-methyl-3-oxo-3-(((S)-2-phenyl-1-(thiazol-2-yl)ethyl)amino)propyl)pyrrolidin-1-yl)-5-methyl-1-oxoheptan-4-yl)-N,3-dimethyl-2-((S)-3-methyl-2-(methyl(2-(piperazin-1-yl)ethyl)amino)butanamido)butanamide”, the step yield (late stage modification step) is reported as 19% and the “final HPLC purity” value [1] is reported as 98.8%.

With “(S)—N-((3R,4S,5S)-3-methoxy-1-((S)-2-((1R,2R)-1-methoxy-2-methyl-3-oxo-3-(((S)-2-phenyl-1-(thiazol-2-yl)ethyl)amino)propyl)pyrrolidin-1-yl)-5-methyl-1-oxoheptan-4-yl)-N,3-dimethyl-2-((S)-3-methyl-2-(methyl(3-(methylamino)propyl)amino) butanamido)butanamide” the “purity (crude or final not stated)” value (210 nm) was 88%.

With “Methyl ((2R,3R)-3-((S)-1-((3R,4S,5S)-4-((S)-2-((S)-2-((4-aminophenethyl)(methyl)amino)-3-methylbutanamido)-N,3-dimethylbutanamido)-3-methoxy-5-methylheptanoyl)pyrrolidin-2-yl)-3-methoxy-2-methylpropanoyl)-L-phenylalaninate” the step yield (coupling step) was 45%.

“N—((S)-1-(((S)-1-((4-((3R,4S,7S,10S)-4-((S)-sec-butyl)-7,10-diisopropyl-3-(2-((S)-2-((1R,2R)-1-methoxy-2-methyl-3-oxo-3-(((S)-2-phenyl-1-(thiazol-2-yl)ethyl)amino)propyl)pyrrolidin-1-yl)-2-oxoethyl)-5,11-dimethyl-6,9-dioxo-2-oxa-5,8,11-triazatridecan-13-yl)phenyl)amino)-1-oxo-5-ureidopentan-2-yl)amino)-3-methyl-1-oxobutan-2-yl)-6-(2,5-dioxo-2,5-dihydro-1H-pyrrol-1-yl)hexanamide 2,2,2-trifluoroacetate” showed a conjugation yield of 70%.

For “methyl ((2R,3R)-3-((S)-1-((3R,4S,5S)-4-((S)-2-((S)-2-((3-(6-(2,5-dioxo-2,5-dihydro-1H-pyrrol-1-yl)hexanamido)benzyl)(methyl)amino)-3-methylbutanamido)-N,3-dimethylbutanamido)-3-methoxy-5-methylheptanoyl)pyrrolidin-2-yl)-3-methoxy-2-methylpropanoyl)-L-phenylalaninate 2,2,2-trifluoroacetate”, the conjugation yield was 50%.

With “methyl ((2R,3R)-3-((S)-1-((3R,4S,5S)-4-((S)-2-((S)-2-((4-(6-(2,5-dioxo-2,5-dihydro-1H-pyrrol-1-yl)-N-methylhexanamido)phenethyl)(methyl)amino)-3-methylbutanamido)-N,3-dimethylbutanamido)-3-methoxy-5-methylheptanoyl)pyrrolidin-2-yl)-3-methoxy-2-methylpropanoyl)-L-phenylalaninate 2,2,2-trifluoroacetate” the conjugation yield was 16%.

Work on “methyl ((2R,3R)-3-((S)-1-((3R,4S,5S)-4-((S)-2-((S)-2-((4-((((4-((S)-2-((S)-2-(6-(2,5-dioxo-2,5-dihydro-1H-pyrrol-1-yl)hexanamido)-3-methylbutanamido)-5-ureidopentanamido)benzyl)oxy)carbonyl)(methyl)amino)phenethyl)(methyl) amino)-3-methylbutanamido)-N,3-dimethylbutanamido)-3-methoxy-5-methylheptanoyl)pyrrolidin-2-yl)-3-methoxy-2-methylpropanoyl)-L-phenylalaninate 2,2,2-trifluoroacetate” yielded a conjugation yield of 70%.

Work on “methyl (S)-2-((2R,3R)-3-((S)-1-((3R,4S,5S)-4-((S)-2-((((9H-fluoren-9-yl)methoxy)carbonyl)amino)-N,3-dimethylbutanamido)-3-methoxy-5-methylheptanoyl)pyrrolidin-2-yl)-3-methoxy-2-methylpropanamido)-3-phenylpropanoate” yielded a step yield (coupling step) of 34%.

In the case of “methyl (S)-2-((2R,3R)-3-((S)-1-((3R,4S,5S)-4-((S)-2-((S)-2-((2-aminoethyl)(methyl)amino)-3-methylbutanamido)-N,3-dimethylbutanamido)-3-methoxy-5-methylheptanoyl)pyrrolidin-2-yl)-3-methoxy-2-methylpropanamido)-3-phenylpropanoate”, the step yield (late stage modification step) is reported as 10% and the “final HPLC purity” value [1] is reported as 91.0%.

In the case of “methyl (S)-2-((2R,3R)-3-((S)-1-((3R,4S,5S)-4-((S)-2-((S)-2-((4-hydroxyphenethyl)(methyl)amino)-3-methylbutanamido)-N,3-dimethylbutanamido)-3-methoxy-5-methylheptanoyl)pyrrolidin-2-yl)-3-methoxy-2-methylpropanamido)-3-phenylpropanoate”, the step yield (coupling step) is reported as 3% and the “final HPLC purity” value (coupling step, 210 nm) is reported as 89.1%.

“methyl (S)-2-((2R,3R)-3-((S)-1-((3R,4S,5S)-4-((S)-2-amino-N,3-dimethylbutanamido)-3-methoxy-5-methylheptanoyl)pyrrolidin-2-yl)-3-methoxy-2-methylpropanamido)-3-phenylpropanoate” showed a step yield (late stage modification step) of 81%.

With “methyl (S)-2-((2R,3R)-3-((S)-1-((3R,4S,5S)-4-((S)—N,3-dimethyl-2-((S)-3-methyl-2-(methyl(2-(piperazin-1-yl)ethyl)amino)butanamido)butanamido)-3-methoxy-5-methylheptanoyl)pyrrolidin-2-yl)-3-methoxy-2-methylpropanamido)-3-phenylpropanoate” the step yield (late stage modification step) was 19% and the “final HPLC purity” value [1] was 100%.

For “methyl (S)-2-((2R,3R)-3-((S)-1-((7S,10S,13S,14R)-1-amino-13-((S)-sec-butyl)-7,10-diisopropyl-14-methoxy-6,12-dimethyl-8,11-dioxo-3-oxa-6,9,12-triazahexadecan-16-oyl)pyrrolidin-2-yl)-3-methoxy-2-methylpropanamido)-3-phenylpropanoate”, the step yield (late stage modification step) was 13% and the “final HPLC purity” value [1] was 98.5%.

In the case of “methyl (S)-2-((2R,3R)-3-((S)-1-((8S,11S,14S,15R)-14-((S)-sec-butyl)-8,11-diisopropyl-15-methoxy-7,13-dimethyl-9,12-dioxo-2,7,10,13-tetraazaheptadecan-17-oyl)pyrrolidin-2-yl)-3-methoxy-2-methylpropanamido)-3-phenylpropanoate”, the step yield (late stage modification step) is reported as 25% and the “final HPLC purity” value [1] is reported as 97.2%.

For “methyl (S)-2-((2R,3R)-3-((S)-1-((9S,12S,15S,16R)-15-((S)-sec-butyl)-9,12-diisopropyl-16-methoxy-8,14-dimethyl-10,13-dioxo-5-oxa-2,8,11,14-tetraazaoctadecan-18-oyl)pyrrolidin-2-yl)-3-methoxy-2-methylpropanamido)-3-phenylpropanoate”, the step yield (late stage modification step) was 40% and the “final HPLC purity” value [1] was 100%.

Work on “methyl((2R,3R)-3-((S)-1-((3R,4S,5S)-4-((S)-2-((S)-2-((4-((S)-2-((S)-2-(6-(2,5-dioxo-2,5-dihydro-1H-pyrrol-1-yl)hexanamido)-3-methylbutanamido)-5-ureidopentanamido)phenethyl)(methyl)amino)-3-methylbutanamido)-N,3-dimethylbutanamido)-3-methoxy-5-methylheptanoyl)pyrrolidin-2-yl)-3-methoxy-2-methylpropanoyl)-L-phenylalaninate 2,2,2-trifluoroacetate” yielded a conjugation yield of 13%.

“tert-butyl (3-((3S,6S,9S,10R)-9-((S)-sec-butyl)-10-(2-((S)-2-((1R,2R)-3-(((1S,2R)-1-hydroxy-1-phenylpropan-2-yl)amino)-1-methoxy-2-methyl-3-oxopropyl)pyrrolidin-1-yl)-2-oxoethyl)-3,6-diisopropyl-2,8-dimethyl-4,7-dioxo-11-oxa-25,8-triazadodecyl)phenyl)carbamate” gave a step yield (coupling step) of 66%.
